# From the supplement of paper PMC12067093, “Discovery and optimisation of a covalent ligand for TRIM25 and its application to targeted protein ubiquitination” (Chemical Science, 2025)
# The other results are listed elsewhere or left out.
# Molecular target: INTS9_Q9NV88_637_GHIVLLQEAETLIQIEEDSTHIICDNDEMLR (UniProt Q9NV88)
# Assay: probe-labelled cysteine peptide fold change vs DMSO (competition) (log2 fold change); higher = less target engagement (more negative = stronger competition)
# Conditions: THP-1, incubation time: 4 h
# 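Further: competitive profiling in live THP-1 cells: cysteine peptides tagged with an iodoacetamide desthiobiotin (IA-DTB) probe, intensity after compound treatment relative to DMSO-treated cells.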
structure (smiles),measurement,setting,value
Cc1cc(C(=O)N2CCCN(C(=O)CCl)CC2)ccc1-c1ccccc1 [compound 10],probe-labelled cysteine peptide fold change,10 µM,-0.0221
same,probe-labelled cysteine peptide fold change,50 µM,-0.0641
